From patent publication US7063861B2, “Bioavailable composition of natural and synthetic HCA” (Sabinsa Corporation, priority 2000, dated 2006)

Test: Oral administration of garcinol, HCA and combination: body weight, food and fluid consumption in SKH-1 mice
Format: in vivo
Conditions: 0.05% GAR, 1% HCA, Mean ± SE

## O=C(O)CC(O)(C(=O)O)C(O)C(=O)O (centres unmarked) [HCA, 1,2-dihydroxypropane-1,2,3-tricarboxylic acid]
5 weeks
  Food consumption: 5.74 ± 0.13 gm/mouse/day
  Water consumption: 3.72 ± 0.08 ml/mouse/day
7 weeks
  Food consumption: 6.49 ± 0.07 gm/mouse/day
10 weeks
  Food consumption: 6.93 ± 0.21 gm/mouse/day
  Water consumption: 3.84 ± 0.09 ml/mouse/day
